Measurements reported in PubChem BioAssay AID1224828 (NIAID, 2016).

Purpose: 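Knock-downs that increase or decrease LPS-induced p65 nuclear translocation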 (primary screen)
Cell system: mouse RAW264.7 G9 macrophage reporter cells (GFP-p65, Tnf promoter-mCherry)
Reagents: siRNA pool against mouse genes, 100 nM
Time to read-out: 2 days siRNA transfection, then 40 min LPS before fixation
Conditions: LPS (Salmonella minnesota R595) at 10 ng/ml
Measured: 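Imaged p65 nuclear translocation ratio, normalised to the plate median, converted to robust z-scores and averaged across two replicates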
Direction: p65 translocation robust z-score: higher = more nuclear NF-kappaB p65 after LPS than the plate median; nuclear/cytoplasmic p65 ratio: higher = more nuclear NF-kappaB p65
Active means: 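Called active when z exceeds 3.3 or falls under -1.56 (median of Tlr4 controls), giving activity score of at least 50; no calls for control wells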
Meaning of the calls: active = hit (p65 shift raised or lowered); inactive = no clear change
Here is a random part of about 17,000 reagents. Over the whole deposit, 762 (4.5%) were called active. 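Active calls include both raised and lowered p65 entry, mostly lowered; wells with fewer than 50 cells lack a z-score.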 Raw values are not corrected between plates.

Mmp23 (matrix metallopeptidase 23) → p65 translocation robust z-score: -0.24; nuclear/cytoplasmic p65 ratio, rep 1: 1.44; nuclear/cytoplasmic p65 ratio, rep 2: 1.29; low cell count flag: enough cells to score; activity call: inactive
Tmem41a (transmembrane protein 41a) → p65 translocation robust z-score: 1.9; nuclear/cytoplasmic p65 ratio, rep 1: 1.52; nuclear/cytoplasmic p65 ratio, rep 2: 1.81; low cell count flag: enough cells to score; activity call: inactive
Pink1 (PTEN induced putative kinase 1) → p65 translocation robust z-score: -0.44; nuclear/cytoplasmic p65 ratio, rep 1: 1.71; nuclear/cytoplasmic p65 ratio, rep 2: 1.24; low cell count flag: enough cells to score; activity call: inactive
Ehbp1 (EH domain binding protein 1) → p65 translocation robust z-score: -0.46; nuclear/cytoplasmic p65 ratio, rep 1: 1.52; nuclear/cytoplasmic p65 ratio, rep 2: 1.62; low cell count flag: enough cells to score; activity call: inactive
Prl (prolactin) → p65 translocation robust z-score: 0.85; nuclear/cytoplasmic p65 ratio, rep 1: 1.63; nuclear/cytoplasmic p65 ratio, rep 2: 1.5; low cell count flag: enough cells to score; activity call: inactive
Pnpt1 (polyribonucleotide nucleotidyltransferase 1) → p65 translocation robust z-score: 0.91; nuclear/cytoplasmic p65 ratio, rep 1: 1.37; nuclear/cytoplasmic p65 ratio, rep 2: 1.32; low cell count flag: enough cells to score; activity call: inactive
Tmsb4x (thymosin, beta 4, X chromosome) → p65 translocation robust z-score: -0.32; nuclear/cytoplasmic p65 ratio, rep 1: 1.37; nuclear/cytoplasmic p65 ratio, rep 2: 1.12; low cell count flag: enough cells to score; activity call: inactive
Defb2 (defensin beta 2) → p65 translocation robust z-score: -0.14; nuclear/cytoplasmic p65 ratio, rep 1: 1.52; nuclear/cytoplasmic p65 ratio, rep 2: 1.56; low cell count flag: enough cells to score; activity call: inactive
Or51f1e (olfactory receptor family 51 subfamily F member 1E) → p65 translocation robust z-score: -1.74; nuclear/cytoplasmic p65 ratio, rep 1: 1.12; nuclear/cytoplasmic p65 ratio, rep 2: 1.14; low cell count flag: enough cells to score; activity call: active
Kcnj9 (potassium inwardly-rectifying channel, subfamily J, member 9) → nuclear/cytoplasmic p65 ratio, rep 1: 1.56; nuclear/cytoplasmic p65 ratio, rep 2: 1.59; low cell count flag: fewer than 50 cells per well; well left out of scoring; activity call: inactive
Or51ag1 (olfactory receptor family 51 subfamily AG member 1) → p65 translocation robust z-score: 0.74; nuclear/cytoplasmic p65 ratio, rep 1: 1.51; nuclear/cytoplasmic p65 ratio, rep 2: 1.38; low cell count flag: enough cells to score; activity call: inactive
Atp13a4 (ATPase type 13A4) → p65 translocation robust z-score: 2.5; nuclear/cytoplasmic p65 ratio, rep 1: 1.6; nuclear/cytoplasmic p65 ratio, rep 2: 1.9; low cell count flag: enough cells to score; activity call: inactive

Active calls, among the entries above:
Or51f1e (olfactory receptor family 51 subfamily F member 1E) → p65 translocation robust z-score: -1.74; nuclear/cytoplasmic p65 ratio, rep 1: 1.12; nuclear/cytoplasmic p65 ratio, rep 2: 1.14; low cell count flag: enough cells to score; activity call: active
